Reference: article PMC6929620
No constants are given. Whether binding was seen depends on the method and setting. Binding seen in cells or lysates may run through a third protein. These calls come from enrichment with a bait or labelling near it, and not all partners need be listed.

Protein sequences, listed by entry. Tags and fused reporters are not part of them.
UniProt O43347: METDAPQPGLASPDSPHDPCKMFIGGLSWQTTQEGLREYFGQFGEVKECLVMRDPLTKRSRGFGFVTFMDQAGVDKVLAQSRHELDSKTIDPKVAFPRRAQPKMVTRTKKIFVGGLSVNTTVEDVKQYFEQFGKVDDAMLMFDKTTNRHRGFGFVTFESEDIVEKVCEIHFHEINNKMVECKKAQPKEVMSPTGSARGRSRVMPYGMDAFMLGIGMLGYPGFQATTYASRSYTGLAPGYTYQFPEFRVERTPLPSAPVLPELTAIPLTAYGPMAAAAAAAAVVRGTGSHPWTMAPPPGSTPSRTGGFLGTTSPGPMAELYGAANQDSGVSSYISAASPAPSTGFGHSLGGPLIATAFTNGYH
UniProt P11940: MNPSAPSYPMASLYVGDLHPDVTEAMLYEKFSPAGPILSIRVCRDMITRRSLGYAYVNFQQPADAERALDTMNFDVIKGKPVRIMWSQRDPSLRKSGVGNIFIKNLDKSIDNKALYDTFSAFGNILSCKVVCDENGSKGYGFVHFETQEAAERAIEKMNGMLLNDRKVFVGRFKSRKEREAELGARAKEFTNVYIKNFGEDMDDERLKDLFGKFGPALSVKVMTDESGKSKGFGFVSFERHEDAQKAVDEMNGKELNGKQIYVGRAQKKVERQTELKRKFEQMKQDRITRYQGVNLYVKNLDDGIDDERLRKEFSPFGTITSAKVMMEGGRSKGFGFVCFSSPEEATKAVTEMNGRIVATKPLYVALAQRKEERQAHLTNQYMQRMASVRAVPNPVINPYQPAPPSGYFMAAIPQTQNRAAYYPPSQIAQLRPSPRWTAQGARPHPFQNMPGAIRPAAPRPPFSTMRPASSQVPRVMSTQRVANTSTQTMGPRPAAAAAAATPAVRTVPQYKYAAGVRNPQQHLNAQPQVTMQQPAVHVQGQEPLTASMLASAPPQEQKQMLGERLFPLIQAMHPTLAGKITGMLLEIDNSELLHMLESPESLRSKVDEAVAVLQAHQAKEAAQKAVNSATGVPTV
UniProt Q9P2K8: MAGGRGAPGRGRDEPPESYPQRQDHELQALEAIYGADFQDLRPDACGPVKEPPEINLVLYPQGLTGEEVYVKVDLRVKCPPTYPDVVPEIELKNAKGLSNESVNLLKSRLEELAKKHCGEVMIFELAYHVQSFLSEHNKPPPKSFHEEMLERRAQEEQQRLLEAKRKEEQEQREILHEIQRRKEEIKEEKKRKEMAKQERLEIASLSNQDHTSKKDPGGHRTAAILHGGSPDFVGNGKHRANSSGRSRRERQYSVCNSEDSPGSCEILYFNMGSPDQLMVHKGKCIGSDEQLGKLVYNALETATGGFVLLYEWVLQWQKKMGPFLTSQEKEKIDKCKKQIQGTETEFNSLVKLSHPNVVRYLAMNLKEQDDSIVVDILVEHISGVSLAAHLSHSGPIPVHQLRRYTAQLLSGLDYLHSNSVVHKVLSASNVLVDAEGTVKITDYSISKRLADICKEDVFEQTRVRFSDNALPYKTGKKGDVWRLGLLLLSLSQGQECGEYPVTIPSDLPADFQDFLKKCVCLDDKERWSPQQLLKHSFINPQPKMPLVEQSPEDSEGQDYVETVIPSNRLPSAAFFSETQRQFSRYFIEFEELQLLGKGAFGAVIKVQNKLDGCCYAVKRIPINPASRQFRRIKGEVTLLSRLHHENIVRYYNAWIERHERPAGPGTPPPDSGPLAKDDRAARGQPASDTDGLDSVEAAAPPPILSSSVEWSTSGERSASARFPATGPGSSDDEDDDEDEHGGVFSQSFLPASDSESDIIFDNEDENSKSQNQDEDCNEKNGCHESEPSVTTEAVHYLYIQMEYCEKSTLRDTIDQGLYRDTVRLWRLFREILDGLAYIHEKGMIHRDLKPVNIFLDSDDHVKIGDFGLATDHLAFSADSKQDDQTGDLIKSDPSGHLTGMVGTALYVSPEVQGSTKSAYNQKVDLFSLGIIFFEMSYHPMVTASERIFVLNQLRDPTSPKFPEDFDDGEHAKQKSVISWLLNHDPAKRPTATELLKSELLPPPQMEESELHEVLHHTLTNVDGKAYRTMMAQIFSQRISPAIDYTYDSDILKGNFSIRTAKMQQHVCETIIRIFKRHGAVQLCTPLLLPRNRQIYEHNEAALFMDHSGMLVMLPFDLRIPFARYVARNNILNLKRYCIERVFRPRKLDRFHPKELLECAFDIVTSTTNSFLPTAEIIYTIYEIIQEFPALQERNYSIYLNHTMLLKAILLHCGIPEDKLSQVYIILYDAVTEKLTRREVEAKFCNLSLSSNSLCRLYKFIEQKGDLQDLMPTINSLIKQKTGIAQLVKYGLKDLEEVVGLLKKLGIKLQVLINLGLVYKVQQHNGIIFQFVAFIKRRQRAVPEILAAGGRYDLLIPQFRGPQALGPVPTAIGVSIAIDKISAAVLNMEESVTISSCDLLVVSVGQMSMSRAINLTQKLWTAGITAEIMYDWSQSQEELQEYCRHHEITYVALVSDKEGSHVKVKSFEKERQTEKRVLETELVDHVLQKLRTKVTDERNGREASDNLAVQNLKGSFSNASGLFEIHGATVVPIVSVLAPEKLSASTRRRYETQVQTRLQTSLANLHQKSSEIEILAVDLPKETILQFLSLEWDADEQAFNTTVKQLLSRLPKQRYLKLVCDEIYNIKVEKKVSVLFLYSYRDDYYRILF
UniProt P19525: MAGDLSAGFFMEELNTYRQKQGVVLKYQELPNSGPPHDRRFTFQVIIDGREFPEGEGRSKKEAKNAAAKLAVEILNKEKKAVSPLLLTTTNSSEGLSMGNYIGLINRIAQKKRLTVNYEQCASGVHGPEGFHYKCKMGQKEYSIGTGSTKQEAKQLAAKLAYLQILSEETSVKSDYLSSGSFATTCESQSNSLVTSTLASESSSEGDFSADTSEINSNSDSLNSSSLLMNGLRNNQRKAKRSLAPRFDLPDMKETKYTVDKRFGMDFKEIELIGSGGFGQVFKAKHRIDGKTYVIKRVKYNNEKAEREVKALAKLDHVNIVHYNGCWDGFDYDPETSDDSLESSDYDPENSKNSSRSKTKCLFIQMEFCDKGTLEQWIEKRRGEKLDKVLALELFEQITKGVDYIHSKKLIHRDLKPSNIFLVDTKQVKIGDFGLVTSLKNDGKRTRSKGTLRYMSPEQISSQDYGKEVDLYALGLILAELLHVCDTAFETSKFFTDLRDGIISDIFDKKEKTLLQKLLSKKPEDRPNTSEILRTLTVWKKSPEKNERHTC

The substances below were run against Flag-tagged wild-type MSI1 (Musashi-1) (human) (UniProt O43347) (assay: affinity purification with mass spectrometry; Flag-tagged MSI1 protein complex purified from the cytosolic fraction of 05MG cells under normoxia or hypoxia).

| binding | Substance |
| --- | --- |
| binds | PABP (from UniProt P11940 1-636) |
| binds | GCN2 (from UniProt Q9P2K8 1-1649) |
| binds | PKR (from UniProt P19525 1-551) |
